These are yes or no findings as the source states them, for the method shown. In cells and extracts the contact can be indirect. Some results given as binding are weak or reduced against the parent protein; the word gives no strength. For some assays here: Where a sequence is shown, tags or fusion partners need not be part of it.
Tests used:
[1] = target: T1, Flag-GCN5L1 (UniProt P78537); test: co-IP; 293T cells transfected with Flag-GCN5L1 or Flag-MPC2, lysed with IP lysis buffer, incubated at 4 °C overnight with anti-Flag M2 agarose; washed in PBS; eluted with 1x sample buffer; immunoblot with anti-GCN5L1 or anti-MPC2
T1 sequence: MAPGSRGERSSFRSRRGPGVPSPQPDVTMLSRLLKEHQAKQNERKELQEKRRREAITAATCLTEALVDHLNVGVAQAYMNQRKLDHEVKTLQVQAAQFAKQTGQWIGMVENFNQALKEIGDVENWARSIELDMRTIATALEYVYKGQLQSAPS

By UniProt entry, the sequences of proteins in these tests, tags left out.
UniProt O95563: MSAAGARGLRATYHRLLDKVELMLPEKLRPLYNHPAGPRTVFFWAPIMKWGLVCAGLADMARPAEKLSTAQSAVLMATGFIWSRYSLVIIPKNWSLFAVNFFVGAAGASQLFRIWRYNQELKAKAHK

[2] = target: T2, amino acid synthesis 5-like 1 (GCN5L1) (human (endogenous in HEK-293T)) (UniProt P78537); test: co-IP; 293T cells harvested with IP lysis buffer; reacted with immobilized antibodies (GCN5L1, MPC2 and IgG) at 4 °C overnight, Pierce Co-IP Kit; eluted with reducing SDS lysis buffer; immunoblot with anti-MPC2 and anti-GCN5L1
T2 sequence: T1 sequence

## mitochondrial pyruvate carrier 2 (MPC2) (from UniProt O95563 1-127)
[1]
  binding: binds
[2]
  binding: binds

From PMC10426103
